Measurements from US7198651B2, “Method of effecting a reversible color change of dyed hair” (Kao Corporation, priority 2003, dated 2007).
“And” between values parts separate entries of the source, which are not always exact repeats. Equal entries are not always repeated.

Assay: Example II: dyeing of white goat hair, then colour change with acidic gel (pH 3) and alkaline cream
Conditions: for Delta E Colour Change: vs. original dyed colour
Description: The dye mixture can be applied to undamaged white goat hair at 50° C. for 15 min. or 30° C. for 30 min. Approximately 1 g of formulation A is used per gram of hair. After the completion of the dyeing time, the tresses may be rinsed with water, shampoo washed and then dried. The colour of the tresses can then be recorded. […] All of the dyes have the formula I, but only dyes within a certain pKa range are capable of reversible colour change of hair in which the hair changes to a second colour by treatment with the acidic formulation defined in Table 2. The dyeing solutions each had the following compositions: [table] The dye solution is applied in a 1:1 weight ratio to untreated white goat hair at 30° C. for 20 min. After this time, the tresses are shampoo rinsed, dried and the colour measured. The tresses were then run through the following protocol: • a. Acidic Gel (see Table 2a below) was applied in a ratio of 1 g per 1 g of hair tress for 1 min. • b. The hair tress was rinsed with water and dried, and the colour and delta E vs. the original dyed colour was then measured. • c. An alkaline cream (see Table 2b below) was applied in a ratio of 1 g per 1 g of the hair tress for 1 min. • d. The hair tress was rinsed and dried, and the colour and delta E vs. the original dyed colour was then measured. [table] [table]

[1] = Acid Solution (acidic gel pH 3, 1 min)
[2] = Alkali Solution (alkaline cream, 1 min) after acid
[3] = Dyed, 0.2% dye, pH 10, 30° C. 20 min

SMILES | L [1] | a [1] | b [1] | Delta E Colour Change [1] | L [2] | a [2] | b [2] | Delta E Colour Change [2] | L [3] | a [3] | b [3]
CCC(=O)Nc1cc(/N=N/c2nccs2)cc(Cl)c1O [Dye 28, reference compound] | 27 | 43 | 13 | 1 | 29 | 43 | 13 | 1 | 28 | 43 | 13
CCC(=O)Nc1cc(/N=N/c2nc(C)ns2)cc(Cl)c1O [Dye 29, reference compound] | 26 | 52 | −3 | 2 | 26 | 51 | −3 | 1 | 26 | 50 | −2
Cc1nsc(/N=N/c2cc(Cl)c(O)cc2Cl)n1 [Dye 30, reference compound] | 32 | 55 | 22 | 2 | 34 | 56 | 21 | 1 | 33 | 57 | 21
Cc1nsc(/N=N/c2ccc(O)c(Cl)c2)n1 [Dye 31, reference compound] | 36 | 53 | 24 | 2 | 37 | 53 | 23 | 1 | 36 | 54 | 22
CC(=O)Nc1cc(N=Nc2nc(C)ns2)ccc1O [Dye 32, reference compound] | 36 | 62 | −1 | 1 | 37 | 62 | −2 | 1 | 36 | 62 | −2
N#CC1=NN(c2ccccc2)C(=O)C1/N=N/c1cc(Cl)c(S(N)(=O)=O)cc1Cl (stereo not drawn) [Dye 34, reference compound] | 80 and 74 | – | 54 and 68 | 2 | 78 and 75 | – | 56 and 69 | 1 | 79 and 75 | – | 56 and 69
CCSc1nnc(/N=N/c2c(C(C)(C)C)nn3nc(C(C)C)[nH]c23)s1 [Dye 35, reference compound] | 78 | 11 | 73 | 3 | 76 | 12 | 74 | 2 | 77 | 13 | 75
CCc1nn2c(-c3ccc(OC)c(NS(C)(=O)=O)c3)n[nH]c2c1/N=N/c1nc(C(C)C)no1 [Dye 36, reference compound] | 85 | −6 | 57 | 1 | 84 | −4 | 56 | 2 | 85 | −5 | 57
CNS(=O)(=O)c1ccc2nsc(/N=N/c3cc(NC(C)=O)c(O)c(NC(C)=O)c3)c2c1 [Dye 39, reference compound] | 56 | −5 | −16 | 3 | 58 | −5 | −15 | 4 | 55 | −5 | −17
